The supplement of paper PMC10849652
The list shows a part of the results.

Chains of the proteins cited; added tags and fusions are not shown. Lines headed by an entry give the natural chain unless they say otherwise; changes in a name come on top.
UniProt Q6P2P2: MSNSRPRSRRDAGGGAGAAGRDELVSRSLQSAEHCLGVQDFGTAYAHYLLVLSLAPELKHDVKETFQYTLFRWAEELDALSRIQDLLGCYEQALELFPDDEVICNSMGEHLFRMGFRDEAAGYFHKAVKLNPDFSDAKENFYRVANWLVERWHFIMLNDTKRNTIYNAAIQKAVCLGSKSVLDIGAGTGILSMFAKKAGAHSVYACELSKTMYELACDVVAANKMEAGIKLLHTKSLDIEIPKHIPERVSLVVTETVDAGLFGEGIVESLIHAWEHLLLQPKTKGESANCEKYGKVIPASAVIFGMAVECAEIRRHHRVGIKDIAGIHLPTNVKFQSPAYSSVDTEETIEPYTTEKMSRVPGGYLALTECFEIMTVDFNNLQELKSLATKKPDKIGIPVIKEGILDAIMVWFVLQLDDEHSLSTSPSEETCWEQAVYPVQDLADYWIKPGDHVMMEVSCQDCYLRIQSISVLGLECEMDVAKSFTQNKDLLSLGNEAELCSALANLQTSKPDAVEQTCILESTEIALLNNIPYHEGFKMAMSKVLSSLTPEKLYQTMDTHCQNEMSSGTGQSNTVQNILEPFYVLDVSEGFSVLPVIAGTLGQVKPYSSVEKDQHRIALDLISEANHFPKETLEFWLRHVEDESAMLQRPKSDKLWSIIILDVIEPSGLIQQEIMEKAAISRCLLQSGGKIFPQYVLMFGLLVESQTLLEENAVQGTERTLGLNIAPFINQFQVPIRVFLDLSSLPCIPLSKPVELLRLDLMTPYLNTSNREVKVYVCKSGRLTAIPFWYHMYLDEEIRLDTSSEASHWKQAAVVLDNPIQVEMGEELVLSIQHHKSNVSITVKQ
UniProt O43663: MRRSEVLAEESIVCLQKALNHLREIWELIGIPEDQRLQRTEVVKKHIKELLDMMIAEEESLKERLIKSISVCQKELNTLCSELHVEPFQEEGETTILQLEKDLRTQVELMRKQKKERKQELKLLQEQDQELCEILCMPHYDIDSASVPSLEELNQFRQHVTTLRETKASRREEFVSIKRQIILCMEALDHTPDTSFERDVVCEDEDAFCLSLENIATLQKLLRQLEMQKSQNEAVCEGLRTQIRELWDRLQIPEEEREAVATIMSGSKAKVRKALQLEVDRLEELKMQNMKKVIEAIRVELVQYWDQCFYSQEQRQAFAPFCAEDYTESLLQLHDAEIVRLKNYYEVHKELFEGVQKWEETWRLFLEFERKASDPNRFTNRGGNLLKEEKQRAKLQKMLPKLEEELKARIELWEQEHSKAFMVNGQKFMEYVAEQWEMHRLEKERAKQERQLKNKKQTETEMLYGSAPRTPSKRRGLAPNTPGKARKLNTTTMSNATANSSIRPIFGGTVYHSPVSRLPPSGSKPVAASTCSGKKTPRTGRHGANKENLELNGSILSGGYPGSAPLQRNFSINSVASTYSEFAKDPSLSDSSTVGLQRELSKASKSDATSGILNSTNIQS
UniProt Q96BP3: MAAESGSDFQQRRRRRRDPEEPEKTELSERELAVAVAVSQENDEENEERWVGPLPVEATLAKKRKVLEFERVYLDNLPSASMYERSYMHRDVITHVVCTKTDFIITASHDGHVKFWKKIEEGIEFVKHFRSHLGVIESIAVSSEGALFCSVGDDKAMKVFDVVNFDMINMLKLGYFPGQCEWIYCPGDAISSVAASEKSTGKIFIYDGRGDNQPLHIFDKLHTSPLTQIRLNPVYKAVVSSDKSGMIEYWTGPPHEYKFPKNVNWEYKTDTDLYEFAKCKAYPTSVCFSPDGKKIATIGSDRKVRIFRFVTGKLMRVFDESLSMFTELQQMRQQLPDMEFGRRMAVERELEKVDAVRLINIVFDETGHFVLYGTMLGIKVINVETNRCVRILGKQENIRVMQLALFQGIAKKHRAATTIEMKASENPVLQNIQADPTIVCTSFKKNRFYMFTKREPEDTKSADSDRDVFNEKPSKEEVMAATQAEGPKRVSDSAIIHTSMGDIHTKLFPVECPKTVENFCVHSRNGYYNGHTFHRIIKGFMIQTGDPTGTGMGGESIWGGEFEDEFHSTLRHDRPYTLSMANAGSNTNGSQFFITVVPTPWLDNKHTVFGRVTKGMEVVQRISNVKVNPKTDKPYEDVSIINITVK
UniProt Q9Y3C6: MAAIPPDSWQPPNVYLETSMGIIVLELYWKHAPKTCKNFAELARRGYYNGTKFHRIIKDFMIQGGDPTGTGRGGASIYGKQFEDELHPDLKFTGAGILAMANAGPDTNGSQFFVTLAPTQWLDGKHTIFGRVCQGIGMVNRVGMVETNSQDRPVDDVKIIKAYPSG
UniProt O75688: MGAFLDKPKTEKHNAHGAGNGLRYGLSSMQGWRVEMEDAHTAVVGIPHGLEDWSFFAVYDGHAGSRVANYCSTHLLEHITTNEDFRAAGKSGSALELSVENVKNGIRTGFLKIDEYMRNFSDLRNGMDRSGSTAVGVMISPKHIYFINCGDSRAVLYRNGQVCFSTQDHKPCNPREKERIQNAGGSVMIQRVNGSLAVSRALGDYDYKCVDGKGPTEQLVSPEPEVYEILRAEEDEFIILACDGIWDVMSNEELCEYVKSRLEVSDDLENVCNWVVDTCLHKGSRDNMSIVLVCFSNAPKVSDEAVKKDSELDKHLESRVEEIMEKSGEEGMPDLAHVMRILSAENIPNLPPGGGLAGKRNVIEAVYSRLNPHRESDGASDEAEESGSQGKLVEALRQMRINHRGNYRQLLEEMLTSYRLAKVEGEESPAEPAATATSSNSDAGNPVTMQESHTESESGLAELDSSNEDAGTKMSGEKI
UniProt Q06830: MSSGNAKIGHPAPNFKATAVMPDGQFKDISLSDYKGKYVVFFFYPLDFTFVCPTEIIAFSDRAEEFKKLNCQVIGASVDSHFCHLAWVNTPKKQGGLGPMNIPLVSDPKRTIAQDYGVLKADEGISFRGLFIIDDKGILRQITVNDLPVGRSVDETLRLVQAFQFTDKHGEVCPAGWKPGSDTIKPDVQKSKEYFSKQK
UniProt P31321, whole entry, looked up: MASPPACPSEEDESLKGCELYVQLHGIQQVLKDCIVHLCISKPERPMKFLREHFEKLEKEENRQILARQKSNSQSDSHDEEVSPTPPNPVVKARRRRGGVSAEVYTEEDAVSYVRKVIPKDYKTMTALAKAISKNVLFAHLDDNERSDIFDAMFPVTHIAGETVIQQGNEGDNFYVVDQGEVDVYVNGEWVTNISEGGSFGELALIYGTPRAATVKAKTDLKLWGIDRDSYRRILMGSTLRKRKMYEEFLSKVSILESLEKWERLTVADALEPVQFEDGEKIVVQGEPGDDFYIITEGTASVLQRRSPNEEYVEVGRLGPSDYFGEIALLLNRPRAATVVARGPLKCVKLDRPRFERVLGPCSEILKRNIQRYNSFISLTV
UniProt Q86XN7: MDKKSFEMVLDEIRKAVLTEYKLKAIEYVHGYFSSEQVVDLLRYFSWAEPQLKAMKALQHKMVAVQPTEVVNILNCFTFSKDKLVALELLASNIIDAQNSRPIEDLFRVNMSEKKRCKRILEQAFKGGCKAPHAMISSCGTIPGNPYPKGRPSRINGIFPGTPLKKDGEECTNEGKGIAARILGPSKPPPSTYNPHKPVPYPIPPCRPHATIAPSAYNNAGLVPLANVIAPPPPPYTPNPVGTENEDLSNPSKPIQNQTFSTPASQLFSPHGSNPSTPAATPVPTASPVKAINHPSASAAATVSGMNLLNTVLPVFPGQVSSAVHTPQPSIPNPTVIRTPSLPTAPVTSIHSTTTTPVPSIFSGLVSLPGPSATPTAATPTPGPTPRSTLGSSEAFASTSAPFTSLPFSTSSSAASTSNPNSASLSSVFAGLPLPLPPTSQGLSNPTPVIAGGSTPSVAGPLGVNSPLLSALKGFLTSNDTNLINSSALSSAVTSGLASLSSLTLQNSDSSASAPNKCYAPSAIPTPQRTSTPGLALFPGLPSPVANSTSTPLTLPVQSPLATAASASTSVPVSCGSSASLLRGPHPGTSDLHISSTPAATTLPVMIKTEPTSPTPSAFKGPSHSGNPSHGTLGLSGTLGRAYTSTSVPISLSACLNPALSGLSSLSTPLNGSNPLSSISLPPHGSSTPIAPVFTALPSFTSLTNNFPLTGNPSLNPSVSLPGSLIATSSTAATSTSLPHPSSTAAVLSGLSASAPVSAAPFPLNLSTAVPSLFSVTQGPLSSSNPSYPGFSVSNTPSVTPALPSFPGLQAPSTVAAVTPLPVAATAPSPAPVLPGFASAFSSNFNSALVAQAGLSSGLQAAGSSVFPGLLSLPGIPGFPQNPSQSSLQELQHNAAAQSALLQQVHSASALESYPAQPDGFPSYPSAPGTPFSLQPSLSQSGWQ
UniProt Q8TAP8: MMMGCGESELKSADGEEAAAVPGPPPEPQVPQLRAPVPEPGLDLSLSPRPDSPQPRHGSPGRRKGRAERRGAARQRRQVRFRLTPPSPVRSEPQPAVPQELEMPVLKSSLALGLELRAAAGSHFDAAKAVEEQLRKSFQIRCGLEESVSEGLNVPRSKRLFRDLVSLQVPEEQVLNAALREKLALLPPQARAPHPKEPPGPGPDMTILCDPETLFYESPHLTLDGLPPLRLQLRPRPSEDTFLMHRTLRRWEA
UniProt P30041: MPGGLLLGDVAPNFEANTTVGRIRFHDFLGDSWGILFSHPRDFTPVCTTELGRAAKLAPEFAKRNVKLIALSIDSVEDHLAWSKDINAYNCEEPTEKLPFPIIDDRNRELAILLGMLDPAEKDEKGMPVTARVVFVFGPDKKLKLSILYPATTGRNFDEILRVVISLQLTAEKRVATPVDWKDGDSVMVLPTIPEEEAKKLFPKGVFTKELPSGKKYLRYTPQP
UniProt P63151: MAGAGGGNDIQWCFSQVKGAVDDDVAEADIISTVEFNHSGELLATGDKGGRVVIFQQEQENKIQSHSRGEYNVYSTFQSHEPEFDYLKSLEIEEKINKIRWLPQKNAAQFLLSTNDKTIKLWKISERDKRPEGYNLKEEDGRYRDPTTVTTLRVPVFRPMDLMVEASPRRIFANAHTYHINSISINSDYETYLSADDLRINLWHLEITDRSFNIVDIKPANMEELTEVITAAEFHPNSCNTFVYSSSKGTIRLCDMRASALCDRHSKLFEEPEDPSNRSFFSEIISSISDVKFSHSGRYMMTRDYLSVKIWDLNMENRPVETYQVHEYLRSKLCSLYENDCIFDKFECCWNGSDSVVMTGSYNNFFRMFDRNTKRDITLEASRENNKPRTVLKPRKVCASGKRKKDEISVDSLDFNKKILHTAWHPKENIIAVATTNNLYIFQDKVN
UniProt Q9Y570: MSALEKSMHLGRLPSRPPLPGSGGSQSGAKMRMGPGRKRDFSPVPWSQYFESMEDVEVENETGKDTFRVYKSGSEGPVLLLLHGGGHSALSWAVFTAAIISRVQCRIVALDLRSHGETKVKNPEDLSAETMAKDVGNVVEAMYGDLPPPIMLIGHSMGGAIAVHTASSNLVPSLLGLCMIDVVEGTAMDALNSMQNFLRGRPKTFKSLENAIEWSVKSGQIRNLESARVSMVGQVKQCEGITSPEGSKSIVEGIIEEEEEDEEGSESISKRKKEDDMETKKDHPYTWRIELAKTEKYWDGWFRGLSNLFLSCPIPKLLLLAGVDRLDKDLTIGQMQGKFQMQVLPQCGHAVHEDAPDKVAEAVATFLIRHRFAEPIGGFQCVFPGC
UniProt O60237: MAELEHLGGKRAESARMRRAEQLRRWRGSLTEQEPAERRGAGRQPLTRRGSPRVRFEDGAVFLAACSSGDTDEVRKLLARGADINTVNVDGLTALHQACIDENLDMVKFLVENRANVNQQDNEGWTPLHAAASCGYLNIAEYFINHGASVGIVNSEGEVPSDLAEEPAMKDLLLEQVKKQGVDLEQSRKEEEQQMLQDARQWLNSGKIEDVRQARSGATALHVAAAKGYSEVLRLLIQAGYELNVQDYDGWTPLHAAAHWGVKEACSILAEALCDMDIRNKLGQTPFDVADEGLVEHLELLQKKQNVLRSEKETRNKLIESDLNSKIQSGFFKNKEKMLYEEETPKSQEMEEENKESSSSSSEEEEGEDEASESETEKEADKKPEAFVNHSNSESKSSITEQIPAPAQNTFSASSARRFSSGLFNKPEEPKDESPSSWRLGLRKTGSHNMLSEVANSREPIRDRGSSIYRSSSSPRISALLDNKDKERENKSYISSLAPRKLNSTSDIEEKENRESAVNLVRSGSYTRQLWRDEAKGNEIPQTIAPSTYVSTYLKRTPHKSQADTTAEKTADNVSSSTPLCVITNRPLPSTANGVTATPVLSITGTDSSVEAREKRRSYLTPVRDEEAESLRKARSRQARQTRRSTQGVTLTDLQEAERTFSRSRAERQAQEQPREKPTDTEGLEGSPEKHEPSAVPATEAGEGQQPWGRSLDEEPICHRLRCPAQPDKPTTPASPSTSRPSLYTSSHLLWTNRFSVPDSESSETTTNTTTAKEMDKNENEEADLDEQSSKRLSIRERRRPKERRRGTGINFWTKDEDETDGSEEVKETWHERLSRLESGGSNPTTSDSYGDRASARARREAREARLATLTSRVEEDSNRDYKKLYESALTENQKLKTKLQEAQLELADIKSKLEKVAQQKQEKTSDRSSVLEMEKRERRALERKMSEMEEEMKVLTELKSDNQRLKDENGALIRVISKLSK

Key:
Assay in all cases: log2 fold change, soluble protein after heating vs DMSO (PISA); higher = thermal stabilisation; K562 lysate, 10 uM; active = over 0.2 and 3.5 SD of the protein, either way, in both replicates (recomputed)
[1] = compound: CCCS(=O)(=O)Nc1ccc(F)c(C(=O)c2c[nH]c3ncc(-c4ccc(Cl)cc4)cc23)c1F [vemurafenib]
How it was run: (§1)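 K562 pellets were dounce-homogenised in PBS pH 7.4 with 1 mM MgCl2, and the crude extract at 1 mg/mL protein was treated with 10 μM compound for 30 min. Aliquots were heated for 3 min across 48°C-58°C, pooled, and brought to 0.5% NP-40 at 4°C; soluble protein was the supernatant after 21,000xg for 90 min. Soluble protein was quantified by TMTpro 16plex LC-MS/MS with channel sums equalised, and reported as log2 fold change in thermal stability against DMSO controls, with values from duplicates.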

[2] = compound: CCCS(=O)(=O)Nc1ccc(F)c(C(=O)c2c[nH]c3ncc(Cl)cc23)c1F
How it was run: as §1

[3] = compound: CCN(CCCOc1ccc2c(Nc3cc(CC(=O)Nc4cccc(F)c4)[nH]n3)ncnc2c1)CCOP(=O)(O)O [barasertib]
How it was run: as §1

[4] = compound: CC[C@@H]1C(=O)N(C)c2cnc(Nc3ccc(C(=O)NC4CCN(C)CC4)cc3OC)nc2N1C1CCCC1
How it was run: as §1

[5] = compound: CC[C@@H]1C(=O)N(C)c2cnc(Nc3ccc(C(=O)N[C@H]4CC[C@H](N5CCN(CC6CC6)CC5)CC4)cc3OC)nc2N1C(C)C [volasertib]
How it was run: as §1

[6] = compound: CCn1c(C(=O)N(C2CC2)C2CC2)cc2c3c(ncn3C)c(Nc3cc(C)n(C)n3)nc21
How it was run: as §1

[7] = compound: CCn1cc(-c2ccnc3[nH]c(-c4cccc(CN(C)C)c4)cc23)c(-c2ccc(NC(=O)N(C)C)cc2)n1
How it was run: as §1

[8] = compound: CN1CCC(CNc2ccc3ncc(-c4cccc(OC(F)(F)F)c4)n3n2)CC1
How it was run: as §1

[9] = compound: CN1CCN(CCOc2cc(OC3CCOCC3)c3c(Nc4c(Cl)ccc5c4OCO5)ncnc3c2)CC1 [saracatinib]
How it was run: as §1

[10] = compound: CN1CCN(c2nc(C3=C(c4c[nH]c5ccccc45)C(=O)NC3=O)c3ccccc3n2)CC1 [sotrastaurin]
How it was run: as §1

Row | Target | log2 fold change [1] | log2 fold change [2] | log2 fold change [3] | log2 fold change [4] | log2 fold change [5] | log2 fold change [6] | log2 fold change [7] | log2 fold change [8] | log2 fold change [9] | log2 fold change [10]
1 | PPP2R1B isoform 2 (UniProt P30154) | inactive: 0.032 | inactive: -0.013 | inactive: 0.019 | inactive: -0.01 | inactive: -0.055 | inactive: -0.001 | inactive: 0.086 | inactive: -0.075 | inactive: 0.008 | inactive: 0.011
2 | PREB (UniProt Q9HCU5) | inactive: 0.025 | inactive: 0.021 | inactive: -0.012 | inactive: 0.032 | inactive: 0.021 | inactive: -0.013 | inactive: -0.021 | inactive: 0.041 | inactive: -0.001 | inactive: 0.022
3 | PROS1 (UniProt P07225) | inactive: -0.057 | inactive: 0.008 | inactive: 0.005 | inactive: 0.042 | inactive: 0.028 | inactive: 0.007 | inactive: -0.002 | inactive: 0.047 | inactive: 0.006 | inactive: 0.011
4 | PRMT9 (UniProt Q6P2P2) | inactive: -0.021 | inactive: 0.028 | inactive: 0.03 | inactive: -0.041 | inactive: -0.057 | inactive: 0.033 | inactive: -0.038 | inactive: 0.05 | inactive: 0 | inactive: 0.053
5 | PRPF4B (UniProt Q13523) | inactive: -0.001 | inactive: 0.068 | inactive: -0.017 | inactive: -0.007 | inactive: -0.022 | inactive: -0.017 | inactive: 0.006 | inactive: 0.043 | inactive: -0.014 | inactive: -0.001
6 | PRPF19 (UniProt Q9UMS4) | inactive: -0.03 | inactive: -0.004 | inactive: -0.01 | inactive: -0.051 | inactive: 0.013 | inactive: 0 | inactive: 0.008 | inactive: 0.01 | inactive: -0.013 | inactive: 0.025
7 | PRC1 (UniProt O43663) | inactive: 0.048 | inactive: 0.03 | inactive: 0.063 | inactive: -0.057 | inactive: -0.028 | inactive: 0 | inactive: -0.004 | inactive: -0.094 | inactive: 0.025 | inactive: 0.005
8 | PPWD1 (UniProt Q96BP3) | inactive: 0.031 | inactive: 0.021 | inactive: 0.006 | inactive: -0.013 | inactive: -0.013 | inactive: -0.006 | inactive: 0.013 | inactive: -0.026 | inactive: -0.021 | inactive: 0.023
9 | PPP1CC isoform 2 (UniProt P36873) | inactive: 0.029 | inactive: 0.024 | inactive: -0.023 | inactive: 0.017 | inactive: -0.007 | inactive: 0.01 | inactive: 0.155 | inactive: -0.015 | inactive: -0.004 | inactive: -0.013
10 | PRKAB2 (UniProt O43741) | inactive: 0.022 | inactive: 0.104 | inactive: -0.081 | inactive: 0 | inactive: -0.05 | inactive: -0.094 | active: -0.85 | inactive: 0.303 | inactive: 0.029 | inactive: 0.026
11 | PPIL1 (UniProt Q9Y3C6) | inactive: -0.003 | inactive: -0.019 | inactive: 0.026 | inactive: -0.004 | inactive: -0.033 | inactive: -0.01 | inactive: -0.036 | inactive: 0.009 | inactive: 0.015 | inactive: 0.026
12 | PPP4R4 (UniProt Q6NUP7) | inactive: 0.207 | inactive: 0.013 | inactive: 0.138 | inactive: 0.423 | inactive: -0.048 | inactive: -0.307 | – | – | inactive: -0.003 | inactive: -0.065
13 | PPP3CC (UniProt P48454) | inactive: 0.039 | inactive: -0.011 | inactive: 0.032 | inactive: 0.032 | inactive: 0 | inactive: 0.053 | inactive: -0.064 | inactive: 0.034 | inactive: 0.016 | inactive: 0.045
14 | PPP6R1 (UniProt Q9UPN7) | inactive: -0.012 | inactive: -0.002 | inactive: 0.005 | inactive: 0.018 | inactive: -0.01 | inactive: 0.011 | inactive: 0.001 | inactive: 0.003 | inactive: -0.013 | inactive: 0.008
15 | PRDX3 (UniProt P30048) | inactive: 0.021 | inactive: -0.003 | inactive: 0.015 | inactive: 0.07 | inactive: 0.054 | inactive: -0.024 | inactive: 0.046 | inactive: -0.076 | inactive: -0.048 | inactive: 0.031
16 | PRKD3 (UniProt O94806) | inactive: -0.148 | inactive: -0.057 | inactive: 0.161 | inactive: -0.25 | inactive: -0.06 | inactive: -0.143 | active: -0.876 | inactive: 0.219 | – | inactive: 0.086
17 | PPP4R3A (UniProt Q6IN85) | inactive: -0.006 | inactive: -0.007 | inactive: -0.008 | inactive: 0.035 | inactive: 0.014 | inactive: -0.011 | inactive: -0.163 | inactive: 0.068 | inactive: -0.032 | inactive: 0.039
18 | PPM1B (UniProt O75688) | inactive: 0.015 | inactive: 0.019 | inactive: -0.001 | inactive: -0.002 | inactive: -0.017 | inactive: -0.015 | inactive: -0.109 | inactive: 0.075 | inactive: 0.005 | inactive: 0.003
19 | PRDX1 (UniProt Q06830) | inactive: 0.008 | inactive: 0.005 | inactive: 0.001 | inactive: 0.052 | inactive: 0.046 | inactive: -0.044 | inactive: -0.044 | inactive: 0.147 | inactive: -0.023 | inactive: 0.019
20 | PRDX2 (UniProt P32119) | inactive: -0.029 | inactive: -0.021 | inactive: -0.011 | inactive: 0.026 | inactive: 0.045 | inactive: 0.016 | inactive: -0.074 | inactive: 0.109 | inactive: -0.006 | inactive: 0.018
21 | PRKAR1B (UniProt P31321) | inactive: -0.003 | inactive: -0.046 | inactive: 0.079 | inactive: -0.062 | inactive: -0.084 | inactive: 0.156 | inactive: -0.031 | inactive: -0.068 | inactive: 0.044 | inactive: -0.018
22 | PROSER1 (UniProt Q86XN7) | inactive: 0.116 | inactive: 0.086 | inactive: 0.115 | – | inactive: -0.108 | inactive: 0.206 | inactive: 0.103 | inactive: 0.136 | inactive: -0.09 | –
23 | PRKCQ (UniProt Q04759) | inactive: -0.025 | inactive: -0.003 | inactive: -0.003 | inactive: -0.023 | inactive: -0.043 | inactive: -0.001 | inactive: 0.055 | inactive: -0.006 | inactive: -0.046 | inactive: -0.012
24 | PPP1R35 (UniProt Q8TAP8) | inactive: 0.006 | inactive: -0.005 | inactive: 0.018 | inactive: 0.064 | inactive: 0.011 | inactive: 0.236 | inactive: 0.042 | inactive: -0.006 | inactive: 0.008 | inactive: -0.017
25 | PRDX6 (UniProt P30041) | inactive: 0.005 | inactive: -0.024 | inactive: -0.005 | inactive: 0.018 | inactive: 0.021 | inactive: 0.014 | inactive: 0.075 | inactive: -0.033 | inactive: -0.019 | inactive: 0.002
26 | PPP2R2A isoform 2 (UniProt P63151) | inactive: 0.033 | inactive: -0.003 | inactive: 0 | inactive: 0.009 | inactive: 0.02 | inactive: -0.051 | inactive: -0.064 | inactive: 0.059 | inactive: 0.002 | inactive: 0.005
27 | PQBP1 (UniProt O60828) | inactive: 0.036 | inactive: -0.006 | inactive: -0.032 | inactive: 0.106 | inactive: 0.03 | inactive: -0.063 | inactive: -0.005 | inactive: 0.079 | inactive: 0 | inactive: -0.02
28 | PPME1 isoform 4 (UniProt Q9Y570) | inactive: 0.005 | inactive: 0.003 | inactive: -0.045 | inactive: -0.006 | inactive: 0.016 | inactive: 0.028 | inactive: -0.015 | inactive: 0.008 | inactive: -0.01 | inactive: -0.008
29 | PPP3R1 (UniProt P63098) | inactive: -0.009 | inactive: -0.011 | inactive: 0.115 | inactive: 0.007 | inactive: 0.04 | inactive: 0.029 | inactive: 0.007 | inactive: -0.05 | inactive: -0.034 | inactive: -0.052
30 | PPP1R12B isoform 6 (UniProt O60237) | inactive: 0.08 | inactive: 0.036 | inactive: -0.046 | inactive: 0.133 | inactive: -0.029 | inactive: -0.209 | – | – | inactive: -0.047 | inactive: -0.057

Whole records from above. Order of values: log2 fold change [1]	log2 fold change [2]	log2 fold change [3]	log2 fold change [4]	log2 fold change [5]	log2 fold change [6]	log2 fold change [7]	log2 fold change [8]	log2 fold change [9]	log2 fold change [10]
PRDX3 (UniProt P30048) reads inactive: 0.021	inactive: -0.003	inactive: 0.015	inactive: 0.07	inactive: 0.054	inactive: -0.024	inactive: 0.046	inactive: -0.076	inactive: -0.048	inactive: 0.031
PPM1B (UniProt O75688) reads inactive: 0.015	inactive: 0.019	inactive: -0.001	inactive: -0.002	inactive: -0.017	inactive: -0.015	inactive: -0.109	inactive: 0.075	inactive: 0.005	inactive: 0.003
